The record followed here is PMC7862700.

Chains of the proteins cited; added tags and fusions are not shown. Lines headed by an entry give the natural chain unless they say otherwise; changes in a name come on top.
UniProt Q01892: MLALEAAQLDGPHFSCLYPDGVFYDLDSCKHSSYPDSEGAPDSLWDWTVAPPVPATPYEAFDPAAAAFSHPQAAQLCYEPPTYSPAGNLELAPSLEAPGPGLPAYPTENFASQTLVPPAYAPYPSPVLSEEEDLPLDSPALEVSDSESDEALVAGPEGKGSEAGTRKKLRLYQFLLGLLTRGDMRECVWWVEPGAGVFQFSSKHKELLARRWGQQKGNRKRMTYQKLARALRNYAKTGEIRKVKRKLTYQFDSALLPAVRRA
UniProt P41161: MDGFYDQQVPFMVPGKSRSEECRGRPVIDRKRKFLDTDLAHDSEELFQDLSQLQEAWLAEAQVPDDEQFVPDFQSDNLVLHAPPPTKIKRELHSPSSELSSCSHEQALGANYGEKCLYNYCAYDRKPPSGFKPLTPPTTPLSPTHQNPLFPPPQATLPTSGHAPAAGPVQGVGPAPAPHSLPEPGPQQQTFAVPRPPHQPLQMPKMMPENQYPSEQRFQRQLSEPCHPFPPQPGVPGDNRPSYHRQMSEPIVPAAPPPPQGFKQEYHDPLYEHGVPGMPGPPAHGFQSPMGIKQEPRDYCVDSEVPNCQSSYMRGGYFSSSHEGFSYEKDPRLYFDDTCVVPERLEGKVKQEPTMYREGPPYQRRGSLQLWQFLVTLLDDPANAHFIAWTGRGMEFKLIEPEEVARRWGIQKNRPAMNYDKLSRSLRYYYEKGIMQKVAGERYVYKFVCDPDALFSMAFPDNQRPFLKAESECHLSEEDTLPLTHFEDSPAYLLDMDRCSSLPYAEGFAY
UniProt Q99607: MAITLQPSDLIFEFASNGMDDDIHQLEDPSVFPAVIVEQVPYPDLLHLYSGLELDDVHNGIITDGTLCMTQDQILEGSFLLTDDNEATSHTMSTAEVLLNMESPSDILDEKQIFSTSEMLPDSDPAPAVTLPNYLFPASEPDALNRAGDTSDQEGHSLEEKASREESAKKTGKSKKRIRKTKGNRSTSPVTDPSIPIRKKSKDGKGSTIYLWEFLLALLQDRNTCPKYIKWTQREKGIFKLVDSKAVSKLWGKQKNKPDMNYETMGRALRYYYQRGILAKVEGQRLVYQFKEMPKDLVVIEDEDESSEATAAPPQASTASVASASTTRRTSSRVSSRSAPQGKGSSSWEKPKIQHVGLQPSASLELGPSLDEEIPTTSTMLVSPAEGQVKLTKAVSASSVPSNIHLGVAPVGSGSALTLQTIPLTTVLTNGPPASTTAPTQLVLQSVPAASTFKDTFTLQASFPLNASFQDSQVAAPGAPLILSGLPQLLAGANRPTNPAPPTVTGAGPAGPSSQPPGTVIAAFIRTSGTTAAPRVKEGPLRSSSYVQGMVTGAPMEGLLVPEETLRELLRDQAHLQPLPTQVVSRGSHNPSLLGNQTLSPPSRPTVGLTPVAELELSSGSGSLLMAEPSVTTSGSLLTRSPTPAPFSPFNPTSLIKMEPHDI

Only a part is listed here, and it is no random draw. At the low end of the ranking the order means little.

Among the targets are SPIB (UniProt Q01892); ETV5 (UniProt P41161); ELF4 (UniProt Q99607).
What all share (assay): DAPPL (digital affinity profiling via proximity ligation, sequencing)
Conditions in all cases: 10 mM Tris-HCl pH 7.5, 50 mM NaCl, 1 mM DTT, 4% glycerol, room temperature, 30 min; GST-TFs on glutathione beads, 16-mer random dsDNA library, 0.1% …; high values mean tight binding; double strand, one strand shown; scale: fold enrichment (6-mer frequency, TF over GST control)

A further assay deals with T1, FLI1 (UniProt Q01543).
T1 sequence: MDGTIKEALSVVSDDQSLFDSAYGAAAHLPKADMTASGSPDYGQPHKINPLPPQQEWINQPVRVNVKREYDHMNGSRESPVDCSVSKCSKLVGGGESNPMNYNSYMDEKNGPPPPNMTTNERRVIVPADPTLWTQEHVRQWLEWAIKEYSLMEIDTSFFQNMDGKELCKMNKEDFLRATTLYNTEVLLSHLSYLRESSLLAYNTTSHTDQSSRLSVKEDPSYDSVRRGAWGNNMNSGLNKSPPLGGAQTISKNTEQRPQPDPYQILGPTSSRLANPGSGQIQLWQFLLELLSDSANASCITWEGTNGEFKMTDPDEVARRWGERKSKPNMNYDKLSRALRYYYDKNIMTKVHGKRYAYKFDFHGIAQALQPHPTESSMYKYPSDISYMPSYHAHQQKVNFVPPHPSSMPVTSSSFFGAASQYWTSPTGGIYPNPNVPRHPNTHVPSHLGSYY

The target of a further assay is T2, EHF (UniProt Q9NZC4).
T2 sequence: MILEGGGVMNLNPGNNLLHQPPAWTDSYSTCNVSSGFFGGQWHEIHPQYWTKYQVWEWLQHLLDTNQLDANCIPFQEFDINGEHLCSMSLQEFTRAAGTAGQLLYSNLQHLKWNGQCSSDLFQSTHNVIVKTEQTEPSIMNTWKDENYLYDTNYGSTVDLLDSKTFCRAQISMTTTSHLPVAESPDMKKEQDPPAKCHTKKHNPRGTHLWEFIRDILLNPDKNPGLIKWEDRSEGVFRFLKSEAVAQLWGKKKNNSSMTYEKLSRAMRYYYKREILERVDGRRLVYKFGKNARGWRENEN

In a further assay the target is T3, ETV2 (UniProt O00321).
T3 sequence: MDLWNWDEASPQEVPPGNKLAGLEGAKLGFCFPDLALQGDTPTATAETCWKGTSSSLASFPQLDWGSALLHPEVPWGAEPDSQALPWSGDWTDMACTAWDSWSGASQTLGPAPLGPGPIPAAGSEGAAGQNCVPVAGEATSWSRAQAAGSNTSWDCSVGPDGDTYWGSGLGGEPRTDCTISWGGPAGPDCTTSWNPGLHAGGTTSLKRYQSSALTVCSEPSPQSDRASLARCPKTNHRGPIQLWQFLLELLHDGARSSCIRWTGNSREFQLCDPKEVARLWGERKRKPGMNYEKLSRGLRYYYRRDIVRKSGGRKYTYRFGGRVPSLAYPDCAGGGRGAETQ

In a further assay the target is T4, ETV3L (UniProt Q6ZN32).
T4 sequence: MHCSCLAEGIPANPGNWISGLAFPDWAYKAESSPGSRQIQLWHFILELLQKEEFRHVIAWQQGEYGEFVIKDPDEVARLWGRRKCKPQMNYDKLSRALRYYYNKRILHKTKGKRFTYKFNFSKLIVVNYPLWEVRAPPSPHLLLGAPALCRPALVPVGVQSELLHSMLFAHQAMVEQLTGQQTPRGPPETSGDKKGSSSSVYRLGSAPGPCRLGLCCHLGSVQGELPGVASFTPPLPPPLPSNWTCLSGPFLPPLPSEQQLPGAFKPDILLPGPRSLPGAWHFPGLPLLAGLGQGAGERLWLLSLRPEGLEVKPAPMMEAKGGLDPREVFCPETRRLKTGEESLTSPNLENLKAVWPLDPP

As for AGTACG, the binding signal in the assay with FLI1 was 0.891; in the assay with EHF it was 0.947; with SPIB, 0.899; with ETV5, 0.962; with ELF4, 0.856; in the assay with ETV2 it was 0.888. For the same sequence, the binding signal with ETV3L stood at 0.887.

On to GAGAAT, for which the binding signal was determined as 0.778 with FLI1; 0.692 with EHF; 0.738 in the assay with SPIB; 0.745 in the assay with ETV5; 0.673 in the assay with ELF4; 0.721 in the assay with ETV2. In addition, the binding signal with ETV3L stood at 0.81.

Turning to TGCGTC, the binding signal is 0.985 with FLI1; 0.973 with EHF; 0.992 with SPIB; 0.898 with ETV5; 0.936 with ELF4; 1.04 with ETV2. Moreover, in the assay with ETV3L, the binding signal was determined as 0.949.

Turning to CGAAGA, the binding signal is 0.799 in the assay with FLI1; 0.726 with EHF; 0.745 in the assay with SPIB; 0.811 with ETV5; 0.795 with ELF4; 0.931 with ETV2. The binding signal with ETV3L stood at 0.8.

As for GCGCAC, the binding signal in the assay with FLI1 was determined as 0.907; in the assay with EHF it was 0.938; in the assay with SPIB, 0.877; with ETV5, 0.885; in the assay with ELF4, 0.889; with ETV2 it was 0.985. The same sequence showed a binding signal with ETV3L of 1.03.

CATAGA: the binding signal with FLI1 turned out to be 0.97; in the assay with EHF, 0.896; with SPIB, 0.916; with ETV5, 0.871; with ELF4, 0.918; with ETV2, 0.928. Further, the binding signal in the assay with ETV3L was determined as 0.915.

Consider TCCGAG, for which the binding signal in the assay with FLI1 turned out to be 0.853; with EHF it was 0.862; with SPIB it was 0.982; in the assay with ETV5, 0.865; with ELF4, 0.9; in the assay with ETV2, 0.917. The binding signal with ETV3L was 0.871.

Turning to AGAAGG, the binding signal with FLI1 amounted to 0.599; with EHF, 0.71; with SPIB, 0.646; in the assay with ETV5, 0.666; with ELF4, 0.683; with ETV2, 0.712. Further, the binding signal in the assay with ETV3L is 0.671.

As for AGCACG, the binding signal with FLI1 came to 0.968; with EHF, 0.901; in the assay with SPIB, 0.91; with ETV5, 0.845; in the assay with ELF4 it was 0.9; with ETV2 it was 0.919. In the assay with ETV3L, the binding signal was found to be 0.891.

As for CCAGCA, the binding signal with FLI1 worked out at 0.939; in the assay with EHF, 0.943; with SPIB, 0.927; in the assay with ETV5, 0.893; with ELF4, 0.922; with ETV2 it was 0.931. In addition, in the assay with ETV3L, the binding signal was 0.896.

For the sequence GTCTAG, the binding signal worked out at 0.901 with FLI1; 0.879 in the assay with EHF; 0.788 in the assay with SPIB; 0.847 with ETV5; 0.831 in the assay with ELF4; 0.954 with ETV2. Also, the binding signal in the assay with ETV3L turned out to be 0.857.

On to TTGAGA, for which the binding signal in the assay with FLI1 was determined as 0.928; with EHF, 0.883; with SPIB, 0.918; with ETV5, 0.869; with ELF4 it was 0.892; with ETV2 it was 0.866. This sequence came in with a binding signal with ETV3L of 0.86.

Turning to CTGGGG, the binding signal with FLI1 was determined as 0.766; with EHF, 0.801; in the assay with SPIB it was 0.763; with ETV5 it was 0.819; with ELF4, 0.776; with ETV2, 0.879. In the assay with ETV3L, this sequence came in with a binding signal of 0.836.

Regarding CAGCAC, the binding signal with FLI1 stood at 0.97; with SPIB it was 0.97; in the assay with ETV5, 0.939; in the assay with ELF4, 0.988; in the assay with ETV2 it was 0.991; with ETV3L, 0.931.

In the case of TCCAGT, the binding signal with FLI1 was determined as 0.648; in the assay with EHF, 0.645; with SPIB, 0.699; in the assay with ETV5 it was 0.635; in the assay with ELF4, 0.684; with ETV2, 0.846. For the same sequence, the binding signal in the assay with ETV3L came out at 0.616.

As to TGTCAG, the binding signal in the assay with FLI1 was 0.846; with EHF it was 0.936; in the assay with SPIB, 0.934; with ETV5, 0.853; with ELF4, 0.921; in the assay with ETV2, 0.827. In addition, the binding signal in the assay with ETV3L was found to be 0.94.

ATGGGA: the binding signal came to 0.904 with FLI1; 0.964 with EHF; 0.879 in the assay with SPIB; 0.918 in the assay with ETV5; 0.874 with ELF4; 0.836 with ETV2. Moreover, in the assay with ETV3L, the binding signal stood at 0.885.

In the case of CCCAGA, the binding signal in the assay with FLI1 was 0.861; in the assay with EHF it was 0.808; in the assay with SPIB, 0.781; in the assay with ETV5, 0.874; in the assay with ELF4, 0.929; in the assay with ETV2, 0.893. In the assay with ETV3L, this sequence displayed a binding signal of 0.88.

On to GCGAAG, for which the binding signal was determined as 0.905 in the assay with FLI1; 0.948 with SPIB; 0.9 with ETV5; 0.843 in the assay with ELF4; 0.882 with ETV2; 0.773 with ETV3L.

On to AGTTAC, for which the binding signal stood at 0.945 with FLI1; 0.922 with SPIB; 1.05 with ETV5; 0.95 with ELF4; 0.826 with ETV2; 0.859 in the assay with ETV3L.

For CGTCGA, the binding signal came to 0.925 in the assay with FLI1; 0.912 in the assay with EHF; 0.909 with SPIB; 0.872 with ETV5; 0.939 with ELF4; 1.01 with ETV2. Besides, in the assay with ETV3L, the binding signal stood at 0.857.

As for ACGCCA, the binding signal with FLI1 turned out to be 0.88; with EHF, 0.847; with SPIB, 0.916; with ETV5, 0.887; with ELF4 it was 0.988; with ETV2, 0.764. In the assay with ETV3L, this sequence had a binding signal of 0.961.

Turning to AGATGT, the binding signal with FLI1 was 0.964; in the assay with EHF it was 0.904; with SPIB it was 0.869; with ETV5, 0.929; with ELF4 it was 0.916; with ETV2 it was 0.887. The binding signal in the assay with ETV3L worked out at 1.
